Results are given in words; binding and its absence hold for the method and conditions named. Binding seen in cells or lysates may run through a third protein. Some results given as binding are weak or reduced against the parent protein; the word gives no strength. Values belong to the molecule of their own block, whether it stands above or below them.
Target: SBP-FGFR1 (wild type fibroblast growth factor receptor 1 tagged N-terminally with streptavidin binding peptide) (UniProt P11362)
Test: proximity ligation; Duolink in situ PLA on cells fixed with 4% paraformaldehyde and permeabilised with 0.1% Triton (U2OS-SBP-R1.GF; U2OS-SBP-R1 in Figure S3)

binding: binds weakly
Molecule: Hsp90α (from UniProt P07900 1-732)

binding: binds weakly
B1: protein disulfide isomerase A4 (enzyme, UniProt P13667 21-645)
chain: VAGAEGPDEDSSNRENAIEDEEEEEEEDDDEEEDDLEVKEENGVLVLNDANFDNFVADKDTVLLEFYAPWCGHCKQFAPEYEKIANILKDKDPPIPVAKIDATSASVLASRFDVSGYPTIKILKKGQAVDYEGSRTQEEIVAKVREVSQPDWTPPPEVTLVLTKENFDEVVNDADIILVEFYAPWCGHCKKLAPEYEKAAKELSKRSPPIPLAKVDATAETDLAKRFDVSGYPTLKIFRKGRPYDYNGPREKYGIVDYMIEQSGPPSKEILTLKQVQEFLKDGDDVIIIGVFKGESDPAYQQYQDAANNLREDYKFHHTFSTEIAKFLKVSQGQLVVMQPEKFQSKYEPRSHMMDVQGSTQDSAIKDFVLKYALPLVGHRKVSNDAKRYTRRPLVVVYYSVDFSFDYRAATQFWRSKVLEVAKDFPEYTFAIADEEDYAGEVKDLGLSESGEDVNAAILDESGKKFAMEPEEFDSDTLREFVTAFKKGKLKPVIKSQPVPKNNKGPVKVVVGKTFDSIVMDPKKDVLIEFYAPWCGHCKQLEPVYNSLAKKYKGQKGLVIAKMDATANDVPSDRYKVEGFPTIYFAPSGDKKNPVKFEGGDRDLEHLSKFIEEHATKLSRTKEEL

binding: binds weakly
B2: U4/U6.U5 tri-snRNP-associated protein 1 (protein, UniProt O43290 1-800)
chain: MGSSKKHRGEKEAAGTTAAAGTGGATEQPPRHREHKKHKHRSGGSGGSGGERRKRSRERGGERGSGRRGAEAEARSSTHGRERSQAEPSERRVKREKRDDGYEAAASSKTSSGDASSLSIEETNKLRAKLGLKPLEVNAIKKEAGTKEEPVTADVINPMALRQREELREKLAAAKEKRLLNQKLGKIKTLGEDDPWLDDTAAWIERSRQLQKEKDLAEKRAKLLEEMDQEFGVSTLVEEEFGQRRQDLYSARDLQGLTVEHAIDSFREGETMILTLKDKGVLQEEEDVLVNVNLVDKERAEKNVELRKKKPDYLPYAEDESVDDLAQQKPRSILSKYDEELEGERPHSFRLEQGGTADGLRERELEEIRAKLRLQAQSLSTVGPRLASEYLTPEEMVTFKKTKRRVKKIRKKEKEVVVRADDLLPLGDQTQDGDFGSRLRGRGRRRVSEVEEEKEPVPQPLPSDDTRVENMDISDEEEGGAPPPGSPQVLEEDEAELELQKQLEKGRRLRQLQQLQQLRDSGEKVVEIVKKLESRQRGWEEDEDPERKGAIVFNATSEFCRTLGEIPTYGLAGNREEQEELMDFERDEERSANGGSESDGEENIGWSTVNLDEEKQQQDFSASSTTILDEEPIVNRGLAAALLLCQNKGLLETTVQKVARVKAPNKSLPSAVYCIEDKMAIDDKYSRREEYRGFTQDFKEKDGYKPDVKIEYVDETGRKLTPKEAFRQLSHRFHGKGSGKMKTERRMKKLDEEALLKKMSSSDTPLGTVALLQEKQKAQKTPYIVLSGSGKSMNANTITK
